Data: PubChem BioAssay AID624297 (National Center for Advancing Translational Sciences (NCATS), 2012)
Among all 340,000 compounds or so, about 6,200 (1.8%) were called active. The shares of active, inactive and inconclusive entries below differ from those in the screen. Calls come from the whole dose curve; as a rule, active = well fitted activation curve with a large enough effect; inconclusive = small, poorly fitted or top-dose-only effect; inactive = no such curve, though single readings can be large or run the other way. A potency beside an inconclusive call is a rough fit, not a confirmed value.

experiment: A quantitative high throughput screen for small molecules that induce DNA re-replication in SW480 colon adenocarcinoma cells.; note: nearly all actives have a fitted effect of over 55% in size; for re-replication activation: % of control where 0% means no effect; settings: Hoechst DNA content imaging, 48 h; re-replication activation: at 46.1 µM (top of the series) unless noted
In short: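 First, 250 cells per well were seeded. Next, compound or vehicle (23 nL) was pinned in, plates sat 48 hr at 37 C. Finally Hoechst was added for 40 min before fluorescence scanning.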
Potency is the fitted concentration of half-maximal effect.

SMILES	Potency	re-replication activation
Cc1ccc(C)c(NCC(=O)c2ccc(Cl)cc2)c1	inconclusive: 29.1 µM [activator, single point]	
CCCCC(C(=O)O)C(C)CC(=O)Nc1ccn(-c2ccccc2)n1 (configuration not stated)	inactive	
COc1ccc(C(=O)Nc2ccccc2-c2nnn(CC(N)=O)n2)cc1	inconclusive: 16.4 µM [activator, partial curve, poor fit]	
O=C1c2ccccc2C(=O)C1c1ccc(F)cc1	inactive	
O=C(Nc1ccccc1-c1ccccc1)C1CCCC1	inconclusive: 20.6 µM [activator, single point]	
CC(C)(C)C(=O)/C=c1\[nH]c(=O)/c(=C\c2ccccc2F)s1		inactive: -41.4% [at 1.84 µM]
Oc1c(Cl)cc(Cl)cc1C1=NNC(c2ccc(Cl)cc2)C1 (configuration not stated)	inconclusive: 11.6 µM [activator, single point]	
O=c1cc(-c2ccccc2)nc2cc(-c3ccco3)[nH]n12	inactive	
COc1nc(Nc2ccccc2)nc(OC)n1	inconclusive: 0.651 µM [activator, partial curve, poor fit]	
O=C(c1ccccc1)N1N=C(c2ccccc2)CC1c1ccccc1 (configuration not stated)	inconclusive: 29.1 µM [activator, single point]	
O=C(NNS(=O)(=O)c1ccccc1[N+](=O)[O-])c1cccc(Cl)c1	active: 0.517 µM	
COc1ccc(CN2CCC(CO)(Cc3cccc(C(F)(F)F)c3)CC2)cc1Cn1cccn1	inconclusive: 29.1 µM [activator, single point]	
CCNc1ccc(Br)cc(C(=O)/C=C/c2ccccc2Cl)c1=O	inconclusive: 18.4 µM [activator, single point]	
Cc1nnc(NC(=O)c2ccccc2-c2ccccc2C(=O)O)s1	inconclusive: 2.91 µM [activator, single point]	
COc1cccc(N2CCN(CC(=O)Nc3ccccc3C(=O)NCCc3ccccc3)CC2)c1	inactive	
COc1ccc(C(=O)COC(=O)CNC(=O)c2ccc(OC)cc2)cc1	inconclusive: 3.26 µM [activator, single point]	
O=C(OC1CCOC1=O)c1ccc(N2CCCC2)c([N+](=O)[O-])c1 (configuration not stated)	inconclusive: 0.0046 µM [activator, full curve, poor fit]	
O=C(Nc1cc(C(F)(F)F)ccc1N1CCCC1)c1cccnc1	inconclusive: 6.51 µM [activator, single point]	
CCn1nc(NC(=O)c2cccnc2)c2cc3ccccc3nc21	inactive	
CCC1CCCCN1Cc1ccc(CNS(=O)(=O)c2ccc3c(c2)oc(=O)n3C)o1 (configuration not stated)	inactive	
CCc1noc(C)c1C(=O)Nc1nc2c(C)cc(C)cc2s1	inactive	
CC(=O)n1cc([C@H]2C=C(C(=O)NCc3ccccc3)O[C@@H](OCCCCO)C2)c2ccccc21	inconclusive: 32.6 µM [activator, partial curve, poor fit]	
CCSc1nnc(NC(=O)CSc2nc3c(c(=O)n2CC)SC(C)C3)s1 (configuration not stated)	inactive	

SMILES	Potency	re-replication activation
O=S(=O)(c1cccs1)N1CCN(c2ccc(O)cc2)CC1	inconclusive: 16.4 µM [activator, partial curve, poor fit]	
COc1ccc(C2CC(c3cccs3)=NN2c2ccc(C=O)cc2)cc1 (configuration not stated)	inconclusive: 0.731 µM [activator, full curve, poor fit]	
CCOC(=O)CC(c1ccc([N+](=O)[O-])cc1)n1c(C)ccc1C (configuration not stated)	inconclusive: 18.4 µM [activator, partial curve, poor fit]	
CC(C)C(c1nnnn1Cc1ccc(F)cc1)N1CCN(Cc2ccc3c(c2)OCO3)CC1 (configuration not stated)	inconclusive: 18.4 µM [activator, single point]	
COc1ccc(NC(=O)/C(Cl)=C(/Cl)S(=O)(=O)Cc2ccccc2)cn1	inconclusive: 4.11 µM [activator, full curve, poor fit]	
C/C(CC(=O)Nc1ccccn1)=N\NC(=O)c1ccccc1O	active: 1.3 µM	
CCN(CC)S(=O)(=O)c1ccc(-c2nnc(SCC(=O)N3CCOCC3)o2)cc1	inconclusive: 20.6 µM [activator, single point]	
Cc1cc(=O)[nH]c(SCC(=O)N(CCC#N)c2ccccc2)c1C#N	inactive	
C[C@]12C=C[C@H](O)CC1=CCC1C2CC[C@@]2(C)C1CCC21OCCO1 (some centres not stated)	inconclusive: 16.4 µM [activator, single point]	
O=C(NCCc1ccccc1)C(=O)NCC1OCCN1S(=O)(=O)c1ccc2c(c1)OCCO2 (configuration not stated)	inconclusive: 29.1 µM [activator, single point]	
COc1ccc(-c2csc(N3CCN(S(=O)(=O)c4ccc5c(c4)NC(=O)CO5)CC3)n2)cc1	active: 9.2 µM	
CC(=O)c1ccc(S(=O)(=O)NCCC(=O)OCC(=O)NCCc2ccccc2)cc1	inconclusive: 0.164 µM [activator, full curve, poor fit]	
O=C(NC(=S)Nn1cnnc1)c1ccccc1Cl	inactive	
Cc1cc(NC(=O)CO/N=C/c2ccc3c(c2)OCO3)ccc1Br	inconclusive: 6.51 µM [activator, single point]	
COc1ccc(OC)c(NC(=O)Nc2ccc(O)c3ccccc23)c1	inconclusive: 5.8 µM [activator, full curve, poor fit]	
CC(C)(C)C(=O)Nc1cccc(C(=O)c2cccc(NC(=O)C(C)(C)C)c2)c1	inconclusive: 29.1 µM [activator, partial curve, poor fit]	
N#Cc1ccc(-c2ccc(OCC(=O)NCC(=O)Nc3ccc(F)c(F)c3F)cc2)cc1	inactive	
S=C(NCc1ccccc1)Nc1cccc2ccccc12	inconclusive: 25.9 µM [activator, single point]	
O=C(C1CCC(=O)N(C2CC2)C1)N1CCC(Oc2cccc(C(F)(F)F)c2)CC1 (configuration not stated)	inconclusive: 29.1 µM [activator, single point]	
CN1CCCN(S(=O)(=O)c2ccc(Cl)c(Cl)c2)CC1	inconclusive: 3.66 µM [activator, single point]	
CCN(CC)c1ccc(N/C(N)=N/c2nc(C(F)(F)F)cc(=O)[nH]2)cc1	inconclusive: 10.3 µM [activator, partial curve, poor fit]	
CCN(CC)C1Oc2cc3c(cc2C(c2cc(OC)c(O)c(OC)c2)C1C)OCO3 (configuration not stated)	inconclusive: 18.4 µM [activator, single point]	
CC[N+](CC)(CC)C/C=C/CN1CCCCC1	inconclusive: 23.1 µM [activator, single point]	

SMILES	Potency	re-replication activation
C/C=C/C(=O)Nc1cccc(C2=NOC3(C2)C[C@@H](C(N)=O)N(C(=O)c2cc([N+](=O)[O-])cc([N+](=O)[O-])c2)C3)c1 (some centres not stated)	inconclusive: 6.51 µM [activator, single point]	
Cc1cc(C)cc(N(C(=O)c2snc(C(N)=O)c2N)C(C(=O)NCC2CCCO2)c2ccc(C)o2)c1 (configuration not stated)	inconclusive: 18.4 µM [activator, single point]	
Cc1[nH]nc(C(F)(F)F)c1N=NN1CCOCC1	inconclusive: 4.61 µM [activator, single point]	
CC(OC(=O)/C=C/c1cccs1)C(=O)Nc1ccc(S(N)(=O)=O)cc1 (configuration not stated)	inconclusive: 18.4 µM [activator, partial curve, poor fit]	
Cc1nc2ccccc2n1CC(=O)N/N=C/c1cccnc1	inconclusive: 18.4 µM [activator, partial curve, poor fit]	
O=C(CCS(=O)(=O)c1ccc(Cl)cc1)Nc1nnc(-c2ccco2)o1	inconclusive: 25.9 µM [activator, single point]	
CN=C(NC#N)SCC(=O)c1ccc(Cl)cc1Cl	inconclusive: 29.1 µM [activator, single point]	
CCCCc1ccc(NC(=S)Nc2ccc(Nc3ccc(OC)cc3)cc2)cc1	inconclusive: 20.6 µM [activator, single point]	
CCN(C(=O)c1cc2c(=O)n3cccc(C)c3nc2n1CCCOC)C1CCCCC1	active: 29.1 µM	
CCn1cc(C(=O)NC(=S)Nc2ccccc2Br)cn1	inactive	
O=C(OCC(=O)c1ccc(Cl)s1)c1ccc2ccccc2n1	inconclusive: 14.6 µM [activator, partial curve, poor fit]	
O=C(O)C1Oc2cc3ccccc3cc2O1	inactive	
CN(C)c1ccc(C(=O)c2ccc(N(C)C)c3ccccc23)cc1	active: 0.411 µM	
CC1=NNC(=O)/C1=C\c1cn(-c2ccccc2)nc1-c1ccc(F)cc1	inconclusive: 3.66 µM [activator, single point]	
CC1=C(C)CS(=O)N(c2ccc(S(N)(=O)=O)cc2)C1 (configuration not stated)	inconclusive: 20.6 µM [activator, single point]	
CSc1ccc(/C=C/C(=O)OCC(=O)N(C)CCC#N)cc1	inconclusive: 0.82 µM [activator, full curve, poor fit]	
O=C(NC12CC3CC(CC(C3)C1)C2)c1ccc(N2CCNCC2)c([N+](=O)[O-])c1	inconclusive: 9.2 µM [activator, partial curve, poor fit]	
CN(C)C(CNC(=O)c1cc(S(=O)(=O)N(C)Cc2ccccc2)ccc1Cl)c1ccco1 (configuration not stated)	inactive	
O=c1[nH]c(C2CCN(S(=O)(=O)c3ccc4c(c3)OCCO4)CC2)nc2c1nnn2Cc1c(F)cccc1Cl	inconclusive: 20.6 µM [activator, single point]	
CC1CN(c2ncc(/C=N/NC(=O)c3ccccc3O)s2)CC(C)O1 (configuration not stated)	inactive	
O=C(Nc1ccc(OC(F)(F)F)cc1)c1ccc(S(=O)(=O)N2CCOCC2)o1	inconclusive: 13 µM [activator, partial curve]	

Individual results from the list.
Under Potency, Cc1nnc(NC(=O)c2ccccc2-c2ccccc2C(=O)O)s1 is listed with inconclusive: 2.91 µM [activator, single point]
Under Potency, COc1ccc(CN2CCC(CO)(Cc3cccc(C(F)(F)F)c3)CC2)cc1Cn1cccn1 is listed with inconclusive: 29.1 µM [activator, single point]
Under Potency, COc1ccc(C2CC(c3cccs3)=NN2c2ccc(C=O)cc2)cc1 (configuration not stated) is listed with inconclusive: 0.731 µM [activator, full curve, poor fit]
Under Potency, CC1CN(c2ncc(/C=N/NC(=O)c3ccccc3O)s2)CC(C)O1 (configuration not stated) is listed with inactive
